The name of at least one read-out is uncertain.
Tested on: Wistar-Ratten
Assay: Cholesterol load test: liver cholesterol after oral cholesterol load
Assay type: in vivo
Settings: given together with cholesterol in 0,75 % tragacanth suspension, liver cholesterol after 24 h
Experimental: Cholesterol- bzw. Fettbelastungstests wurden an nüchternen männlichen oder weiblichen Wistar-Ratten mit einem Körpergewicht zwischen 130-230 g durchgeführt.
Cholesterol-Belastung: • Cholesterol und die zu prüfende Substanz wurden in 0,75 %iger Traganth-Suspension gleichzeitig oral appliziert. Nach 24 h wurden die Tiere getötet und der Cholesterolgehalt in der Leber bestimmt. Cholesterol wurde nach der Liebermann-Burchard-Methode mit der Testkombination von Boehringer Mannheim bestimmt. Kontrolltiere erhielten ein entsprechendes Volumen Cholesterol-Traganth-Suspension ohne Testsubstanz. Zur Kontrolle des Cholesterol-Anstiegs als Folge der Cholesterol-Belastung wurde einer weiteren Kontrollgruppe Traganth-Suspension ohne Cholesterol oral appliziert.

## Brc1ccc(C2CC(N3CCN(c4ccccc4)CC3)=NC3=C2c2ccccc2CC3)cc1 (centres unmarked) [Beispiel 4]
Dosis 10 mg/kg p.o.
  Verminderung des Lebercholesterinanstiegs im Vergleich zur Kontrolle nach oraler Cholesterinbelastung in Prozent: 31,9%
Dosis 30 mg/kg p.o.
  Verminderung des Lebercholesterinanstiegs im Vergleich zur Kontrolle nach oraler Cholesterinbelastung in Prozent: 58,6%
